For this series, the system named is primary human PBMC. Description: STING primary human PBMC cytokine induction assay. Particulars: 48 h, approximately 20 μM, relative to PBS, tested form: Na salt.

For part of its entries the source gives two or more results. This list holds those alone. An entry can have further records. The records of an entry differ, and nothing given here explains why; dose, time, organism, isomer or construct need not be as stated for each record.

On to `COC1C2COP(=O)(O)OC3C(COP(=O)(O)OC1C(n1cnc4c(=O)[nH]c(N)nc41)O2)OC(n1cnc2c(N)ncnc21)C3O` (stereo not drawn), for which the “Fold induction of IFN-α” value is 1.4 fold and 6.3 fold; the “Fold induction of IFN-γ” value is 133.2 fold and 19.1 fold; the “Fold induction of TNFa” value was 5.1 fold and 11.5 fold.

(Values after US11472830B2.)
